# Measurements published in PubChem BioAssay AID445 (National Center for Advancing Translational Sciences (NCATS), 2006).
# “And” between values parts separate entries of the source, which are not always exact repeats. Equal entries are not always repeated. This is one part of the list. The main result of the screen is listed elsewhere. These columns were measured beside it and carry no call. Compounds called inactive in the main read-out are mostly missing here. Potencies come from curve fits of mixed quality, noted in brackets.
# Assay: IkB Signaling
# Settings: ABC-DLBCL IkBa-CBG/CBR dual luciferase ratio (green luciferase fused to IkBa over red control in OCI-Ly3 lymphoma cells), 4 h
# Procedure, shortened: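 Curves were fitted separately to fusion (green), unfused (red) and ratio luminescence, then classed by r2, magnitude and activity. Cells: OCI-Ly3, 4 h compound plus doxycycline at 37C; 10 uM MG-132 defined full response.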
# [1] = measured here: control luc red channel unless noted
smiles,measurement,setting,value
O=C(COc1ccc2c(c1)CCC2)N1CCc2ccccc21,AC50,[1],"31.6 µM [falling, partial curve]"
CCc1ccc(-n2nc(C)c3c(C(=O)Nc4cc(OC)cc(OC)c4)cc(C)nc32)cc1,AC50,[1],"3.98 µM [falling, partial curve]"
CCC(C(=O)NC1CCCC1)N(Cc1ccc2c(c1)OCO2)C(=O)c1snc(C(N)=O)c1N (centres undefined),AC50,[1],"15.8 µM [falling, partial curve] [measured here: IkB-luc green channel]"
CC(C)(C)OC(=O)N1CCC[C@H]1c1nnc(SC/C=C/c2ccccc2)o1,AC50,[1],"10 µM [falling, partial curve]"
COc1cc(C2CC(=O)c3c([nH]c(C(=O)OC4CCCCC4)c3C)C2)cc(OC)c1OC (centres undefined),AC50,[1],"3.98 µM [falling, partial curve]"
CCOC(=O)CSC1=C(C#N)C(c2ccccc2OCC)C(C#N)C(=O)N1 (centres undefined),AC50,[1],"39.8 µM [rising, single point] [measured here: IkB-luc green channel]"
Cc1ccc(CNC(=O)c2c3c(nc4ccccc24)C(=O)N(C2CCCCC2)C3)cc1,AC50,[1],"20 µM [falling, partial curve]"
Cc1csc2nc(COC(=O)c3ccccc3NC(=O)c3ccc(F)cc3)cc(=O)n12,AC50,[1],"39.8 µM [falling, single point]"
COc1cccc(NC(=O)CSc2nc3ccccc3nc2N2CCOCC2)c1,AC50,[1],"20 µM [falling, partial curve]"
CCCN(C(=O)CCc1nc(-c2ccccc2F)no1)c1ccc(CC)cc1,AC50,[1],"25.1 µM [falling, partial curve]"
COc1ccc(NC(=O)c2cc3c(=O)[nH]c4ccccc4c3n2C)cc1Cl,AC50,[1],"25.1 µM [rising, partial curve]"
COc1ccc(CC(=O)NCc2nc3cccnc3n2Cc2ccc(F)cc2)cc1OC,AC50,[1],"5.01 µM [falling, partial curve]"
CCN(C(=O)c1oc2ccc(S(=O)(=O)N3CCCCCC3)cc2c1C)c1ccccc1,AC50,[1],"15.8 µM [falling, partial curve]"
CCOC(=O)c1cccc(NC(=O)CN2C(=O)CC(C)(C)Sc3ccccc32)c1,AC50,[1],"31.6 µM [falling, partial curve]"
CC1(C)CC(n2c(NCCO)nc3c(c2=O)C2(CCCC2)Cc2ccccc2-3)CCO1 (centres undefined),AC50,[1],"39.8 µM [falling, single point]"
CCN1C(=O)c2cccc3c(S(=O)(=O)Nc4nc(C)cs4)ccc1c23,AC50,[1],"6.31 µM [rising, partial curve] [measured here: IkB-luc green channel]"
Cc1ccc(-n2ncc(C(=O)NCCN3CCc4ccccc4C3)c2C2CCN(C(=O)OC(C)(C)C)CC2)cc1,AC50,[1],"25.1 µM [falling, partial curve]"
Cc1ccc(C(=O)Nc2c(C(=O)NCc3ccc(Cl)cc3)sc3nc(C)cc(C)c23)cc1,AC50,[1],"15.8 µM [falling, partial curve]"
Cc1ccccc1OCCn1c(CCNC(=O)C(C)(C)C)nc2ccccc21,AC50,[1],"5.01 µM [falling, full curve]"
COc1ccc(C(C)C)cc1S(=O)(=O)NCCc1c(C)[nH]c2ccc(C)cc12,AC50,[1],"25.1 µM [falling, partial curve]"
CCc1ccc(CNC(=O)c2ccc(-c3nc(CS(=O)(=O)c4ccccc4)c(C)o3)cc2)cc1,AC50,[1],"1.26 µM [falling, full curve, poor fit]"
COc1ccccc1/C=C/c1nc(C#N)c(N(C)C)o1,AC50,[1],"0.0501 µM [rising, full curve]"
COc1cc(C(=O)Nc2ccc3nc(SCc4ccccc4)sc3c2)cc(OC)c1OC,AC50,[1],"10 µM [falling, partial curve]"
CCN(C(=O)CSc1nc2ccccc2n1Cc1cc(C)ccc1C)c1ccccc1,AC50,[1],"10 µM [falling, partial curve]"
Cc1ccc(C(=O)NCC(c2cccs2)S(=O)(=O)c2cccs2)cc1 (centres undefined),AC50,[1],"0.631 µM [rising, full curve]"
O=C(Cn1nc(-c2ccc(Cl)cc2)ccc1=O)NCc1ccccc1Cl,AC50,[1],"15.8 µM [falling, partial curve]"
COc1cccc(C2C(C(=O)Nc3ccc(C)cc3C)=C(C)Nc3c(C(=O)Nc4cccc(C)c4)cnn32)c1OC (centres undefined),AC50,[1],"15.8 µM [falling, partial curve]"
N=C(N)S/C=C\C(=O)O,AC50,[1],"31.6 µM [rising, partial curve, poor fit]"
Cc1cccc(OCC(=O)N(Cc2sccc2C)C2CCS(=O)(=O)C2)c1 (centres undefined),AC50,[1],"25.1 µM [falling, partial curve]"
CN(C)c1ccc(/C=C2/C(=O)Nc3ccccc32)cc1,AC50,measured here: IkB-luc green channel,"12.6 µM [rising, partial curve]"
same,AC50,measured here: control luc red channel,"7.94 µM [falling, partial curve] and 2.51 nM [falling, full curve]"
O=C(NCc1cccc(Cl)c1)C1CCN(C(=O)c2sccc2-n2cccc2)CC1,AC50,[1],"31.6 µM [falling, partial curve]"
CCN(CCNC(=O)C1CCN(S(=O)(=O)c2cccc3nsnc23)CC1)c1ccccc1,AC50,[1],"12.6 µM [falling, partial curve]"
COc1cccc(C(=O)Nc2cccc(C(=O)OCc3cc(=O)n4nc(C(C)C)sc4n3)c2)c1,AC50,[1],"0.631 µM [falling, full curve]"
CC(=O)N1CCC(N(C(=O)Nc2c(F)cccc2F)C(C)C)CC1,AC50,[1],"0.00794 µM [falling, full curve, poor fit]"
Cc1ccc(N(C)C(=O)c2cnc(N3CCOCC3)c3ccccc23)cc1C,AC50,[1],"39.8 µM [falling, single point]"
COc1ccc(OC)c(CNC(=O)Cc2ccc(NC(=O)N3CCCCc4ccccc43)cc2)c1,AC50,[1],"12.6 µM [falling, partial curve]"
COCCCNC(=O)c1c(NC(=O)Cc2coc3cc(C)cc(C)c23)sc2c1CCCC2,AC50,[1],"10 µM [falling, partial curve]"
CCN(CCCNC(=O)c1cc2c(=O)n(CC)c3ccccc3c2s1)c1ccccc1,AC50,[1],"6.31 µM [falling, full curve]"

# 2 entries drawn at random from those above:
smiles,measurement,setting,value
O=C(COc1ccc2c(c1)CCC2)N1CCc2ccccc21,AC50,[1],"31.6 µM [falling, partial curve]"
CCCN(C(=O)CCc1nc(-c2ccccc2F)no1)c1ccc(CC)cc1,AC50,[1],"25.1 µM [falling, partial curve]"
